Measured values published in publication PMC3281842, “Crystal Structure of TDRD3 and Methyl-Arginine Binding Characterization of TDRD3, SMN and SPF30” (PLoS ONE, 2012).
No constants are given. Whether binding was seen depends on the method and setting. For part of these data: Tags and fused reporters may be left off the sequences shown.

Assays:
Test in all cases: fluorescence polarisation; fluorescein-labeled peptides; 20 mM Tris pH 7.5, 50 mM NaCl, 1 mM DTT, 0.01% Triton X-100; 25°C; one-site binding model; Kd the average of three independent measurements; both purified
Histone H3K9me3 = target: T1, Histone H3K9me3
T1 sequence (peptide, trimethyllysine at K9; fluorescein label (position not stated)): ARTKQTARKSTGGKA

Histone H3K9me2 = target: T2, Histone H3K9me2
T2 sequence (peptide, dimethyllysine at K9; fluorescein label (position not stated)): ARTKQTARKSTGGKA

Histone H3K4me2 = target: T3, Histone H3K4me2
T3 sequence (peptide, dimethyllysine at K4; fluorescein label (position not stated)): ARTKQTARKST

H3R2me2a = target: T4, H3R2me2a
T4 sequence (peptide, asymmetric dimethylarginine at R2; fluorescein label (position not stated)): ARTKQTARKSY

H3R2me1 = target: T5, H3R2me1
T5 sequence (peptide, monomethylarginine at R2; fluorescein label (position not stated)): ARTKQTARKSY

H3R2me2s = target: T6, H3R2me2s
T6 sequence (peptide, symmetric dimethylarginine at R2; fluorescein label (position not stated)): ARTKQTARKSY

Histone H3K4me3 = target: T7, Histone H3K4me3
T7 sequence (peptide, trimethyllysine at K4; fluorescein label (position not stated)): ARTKQTARKST

Histone H3K9me1 = target: T8, Histone H3K9me1
T8 sequence (peptide, monomethyllysine at K9; fluorescein label (position not stated)): ARTKQTARKSTGGKA

Histone H3K4me1 = target: T9, Histone H3K4me1
T9 sequence (peptide, monomethyllysine at K4; fluorescein label (position not stated)): ARTKQTARKST

Measured: binding

B1: SPF30 (aa 65–150) (domain or fragment, UniProt O75940 65-150)
chain: ASTQPTHSWKVGDKCMAVWSEDGQCYEAEIEEIDEENGTAAITFAGYGNAEVTPLLNLKPVEEGRKAKEDSGNKPMSKKEMIAQQR
no binding: all assays above
